Test results: the supplement of paper PMC8728848
This is one part of the list.

What was measured:
Experiment in all cases: glycan array binding signal (z-score within array); higher = stronger binding
Settings in all cases: glycan notation: IUPAC condensed, linker removed
[1] = tested on: Fuc(a1-2)Gal(b1-3)GalNAc(a1-3)[Fuc(a1-2)]Gal(b1-4)GlcNAc
Method in brief: (§1)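 From the Consortium for Functional Glycomics database, 3228 arrays were curated, keeping only those whose protein sequence was available. Binding is given as a within-array Z-score averaged across arrays sharing a protein sequence and across linkers. Negative Z-scores can be read as non-binding.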

[2] = tested on: Fuc(a1-2)Gal(b1-3)GalNAc(a1-3)[Fuc(a1-2)]Gal(b1-4)Glc
Method in brief: as §1

[3] = tested on: Fuc(a1-2)Gal(b1-3)GalNAc(b1-3)Gal(a1-4)Gal(b1-4)Glc
Method in brief: as §1

[4] = tested on: Fuc(a1-2)Gal(b1-3)GalNAc(b1-3)Gal
Method in brief: as §1

[5] = tested on: Fuc(a1-2)Gal(b1-3)GalNAc(b1-4)[Neu5Ac(a2-3)]Gal(b1-4)Glc
Method in brief: as §1

Fuc(a1-2)Gal(b1-3)GalNAc = tested on: Fuc(a1-2)Gal(b1-3)GalNAc
Method in brief: as §1

[6] = tested on: Fuc(a1-2)Gal(b1-3)GlcNAc(b1-2)Man(a1-3)[Fuc(a1-2)Gal(b1-3)GlcNAc(b1-2)Man(a1-6)]Man(b1-4)GlcNAc(b1-4)GlcNAc
Method in brief: as §1

[7] = tested on: Fuc(a1-2)Gal(b1-3)GlcNAc(b1-2)Man(a1-3)[Fuc(a1-2)Gal(b1-3)GlcNAc(b1-2)Man(a1-6)]Man(b1-4)GlcNAc(b1-4)[Fuc(a1-6)]GlcNAc
Method in brief: as §1

[8] = tested on: Fuc(a1-2)Gal(b1-3)GlcNAc(b1-3)Gal(b1-4)Glc
Method in brief: as §1

[9] = tested on: Fuc(a1-2)Gal(b1-3)GlcNAc(b1-3)GalNAc
Method in brief: as §1

[10] = tested on: Fuc(a1-2)Gal(b1-3)GlcNAc(b1-3)[Fuc(a1-2)Gal(b1-3)GlcNAc(b1-6)]GalNAc
Method in brief: as §1

[11] = tested on: Fuc(a1-2)Gal(b1-3)GlcNAc(b1-3)[Gal(b1-4)GlcNAc(b1-6)]Gal(b1-4)Glc
Method in brief: as §1

[12] = tested on: Fuc(a1-2)Gal(b1-3)GlcNAc(b1-3)[Neu5Ac(a2-6)Gal(b1-4)GlcNAc(b1-6)]Gal(b1-4)Glc
Method in brief: as §1

[13] = tested on: Fuc(a1-2)Gal(b1-3)GlcNAc6S
Method in brief: as §1

Fuc(a1-2)Gal(b1-3)GlcNAc = tested on: Fuc(a1-2)Gal(b1-3)GlcNAc
Method in brief: as §1

[14] = tested on: Fuc(a1-2)Gal(b1-3)[Fuc(a1-4)]GlcNAc(b1-2)Man(a1-3)[Fuc(a1-2)Gal(b1-3)[Fuc(a1-4)]GlcNAc(b1-2)Man(a1-3)]Man(b1-4)GlcNAc(b1-4)GlcNAc
Method in brief: as §1

[15] = tested on: Fuc(a1-2)Gal(b1-3)[Fuc(a1-4)]GlcNAc(b1-2)Man(a1-3)[Fuc(a1-2)Gal(b1-3)[Fuc(a1-4)]GlcNAc(b1-2)Man(a1-6)]Man(b1-4)GlcNAc(b1-4)[Fuc(a1-6)]GlcNAc(b1-4)[Fuc(a1-6)]GlcNAc
Method in brief: as §1

[16] = tested on: Fuc(a1-2)Gal(b1-3)[Fuc(a1-4)]GlcNAc(b1-3)[Fuc(a1-3)[Gal(b1-4)]GlcNAc(b1-6)]Gal(b1-4)Glc
Method in brief: as §1

[17] = tested on: Fuc(a1-2)Gal(b1-3)[Fuc(a1-4)]GlcNAc(b1-3)[Gal(b1-4)GlcNAc(b1-6)]Gal(b1-4)Glc
Method in brief: as §1

[18] = tested on: Fuc(a1-2)Gal(b1-3)[Fuc(a1-4)]GlcNAc
Method in brief: as §1

[19] = tested on: Fuc(a1-2)Gal(b1-4)Fuc(a1-3)]GlcNAc(b1-2)Man(a1-3)[Fuc(a1-2)Gal(b1-4)[Fuc(a1-3)]GlcNAc(b1-2)Man(a1-6)]Man(b1-4)GlcNAc(b1-4)GlcNAc
Method in brief: as §1

Fuc(a1-2)Gal(b1-4)Glc6S = tested on: Fuc(a1-2)Gal(b1-4)Glc6S
Method in brief: as §1

[20] = tested on: Fuc(a1-2)Gal(b1-4)GlcNAc(b1-2)Man(a1-3)[Fuc(a1-2)Gal(b1-4)GlcNAc(b1-2)Man(a1-6)]Man(b1-4)GlcNAc(b1-4)GlcNAc
Method in brief: as §1

[21] = tested on: Fuc(a1-2)Gal(b1-4)GlcNAc(b1-2)Man(a1-3)[Fuc(a1-2)Gal(b1-4)GlcNAc(b1-2)Man(a1-6)]Man(b1-4)GlcNAc(b1-4)[Fuc(a1-6)]GlcNAc
Method in brief: as §1

[22] = tested on: Fuc(a1-2)Gal(b1-4)GlcNAc(b1-2)Man
Method in brief: as §1

[23] = tested on: Fuc(a1-2)Gal(b1-4)GlcNAc(b1-2)[Fuc(a1-2)Gal(b1-4)GlcNAc(b1-4)]Man(a1-3)[Fuc(a1-2)Gal(b1-4)GlcNAc(b1-2)Man(a1-6)]Man(b1-4)GlcNAc(b1-4)GlcNAc
Method in brief: as §1

[24] = tested on: Fuc(a1-2)Gal(b1-4)GlcNAc(b1-3)Gal(b1-4)GlcNAc(b1-2)Man(a1-3)[Fuc(a1-2)Gal(b1-4)GlcNAc(b1-3)Gal(b1-4)GlcNAc(b1-2)Man(a1-6)]Man(b1-4)GlcNAc(b1-4)GlcNAc
Method in brief: as §1

[25] = tested on: Fuc(a1-2)Gal(b1-4)GlcNAc(b1-3)Gal(b1-4)GlcNAc(b1-3)Gal(b1-4)GlcNAc
Method in brief: as §1

[26] = tested on: Fuc(a1-2)Gal(b1-4)GlcNAc(b1-3)Gal(b1-4)GlcNAc
Method in brief: as §1

[27] = tested on: Fuc(a1-2)Gal(b1-4)GlcNAc(b1-3)GalNAc
Method in brief: as §1

[28] = tested on: Fuc(a1-2)Gal(b1-4)GlcNAc(b1-3)[Fuc(a1-2)Gal(b1-4)GlcNAc(b1-6)]GalNAc
Method in brief: as §1

[29] = tested on: Fuc(a1-2)Gal(b1-4)GlcNAc(b1-3)[Fuc(a1-3)[Gal(b1-4)]GlcNAc(b1-6)]Gal(b1-4)Glc
Method in brief: as §1

MpAFP RI GFP (Marinomonas primoryensis)
glycan array binding signal (z-score) [1]: -0.595
glycan array binding signal (z-score) [2]: -0.554
glycan array binding signal (z-score) [3]: -0.144
glycan array binding signal (z-score) [4]: -0.277
glycan array binding signal (z-score) [5]: -0.548
glycan array binding signal (z-score) (Fuc(a1-2)Gal(b1-3)GalNAc): -0.385
glycan array binding signal (z-score) [6]: 1.38
glycan array binding signal (z-score) [7]: 0.906
glycan array binding signal (z-score) [8]: -0.496
glycan array binding signal (z-score) [9]: -0.256
glycan array binding signal (z-score) [10]: 0.462
glycan array binding signal (z-score) [11]: -0.01
glycan array binding signal (z-score) [12]: -0.127
glycan array binding signal (z-score) [13]: 0.096
glycan array binding signal (z-score) (Fuc(a1-2)Gal(b1-3)GlcNAc): -0.605
glycan array binding signal (z-score) [14]: 1.15
glycan array binding signal (z-score) [15]: 0.68
glycan array binding signal (z-score) [16]: -0.317
glycan array binding signal (z-score) [17]: -0.303
glycan array binding signal (z-score) [18]: -0.05
glycan array binding signal (z-score) [19]: 2.25
glycan array binding signal (z-score) (Fuc(a1-2)Gal(b1-4)Glc6S): 0.747
glycan array binding signal (z-score) [20]: -0.295
glycan array binding signal (z-score) [21]: 0.806
glycan array binding signal (z-score) [22]: 0.722
glycan array binding signal (z-score) [23]: 0.458
glycan array binding signal (z-score) [24]: 1.06
glycan array binding signal (z-score) [25]: 0.489
glycan array binding signal (z-score) [26]: -0.547
glycan array binding signal (z-score) [27]: -0.085
glycan array binding signal (z-score) [28]: -0.441
glycan array binding signal (z-score) [29]: -0.265
